Results: PMC4674064, “Newly Characterized Region of CP190 Associates with Microtubules and Mediates Proper Spindle Morphology in Drosophila Stem Cells” (PLoS ONE, 2015)
These are yes or no findings as the source states them, for the method shown.

Target: T1, EB1 (MT plus end-binding protein) (UniProt Q9XZ57)
T1 sequence: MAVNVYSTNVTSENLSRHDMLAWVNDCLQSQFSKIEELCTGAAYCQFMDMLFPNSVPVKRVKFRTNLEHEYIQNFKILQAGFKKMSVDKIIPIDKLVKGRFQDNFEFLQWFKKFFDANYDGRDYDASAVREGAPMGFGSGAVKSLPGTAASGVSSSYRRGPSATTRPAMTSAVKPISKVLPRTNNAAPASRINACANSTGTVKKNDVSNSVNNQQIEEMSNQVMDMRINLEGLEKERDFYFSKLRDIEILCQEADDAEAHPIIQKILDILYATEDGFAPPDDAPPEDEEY
Assay: SEC; purified F1, EB1 and F1+EB1 run on a sizing column; peak shift looked for; both purified

B1: CP190 fragment F1 (aa 1-209; BTB domain plus linker) (domain or fragment, UniProt Q24478 1-209)
chain: MGEVKSVKVDNWGVFFLQKLQNFFNKTDYCDLTLQFRDNSQLKVHRLVLSACTDYFNVLEQTCEIVDDALIMPNEFQADVVVPIVNFMYTGTLEFELKMYGKLLRTAKEMNMTVLLKLLEAHRRTMENVNRQQRPPSPKGIRRRTVGQPSSGLPQQRVLGPSPQSRNVATPIAQRANTQRGSTGNTMSRTSGGSNRSPYGDSSNVKQEP
binding: no binding
